Taken from: PubChem BioAssay AID1224830 (NIAID, 2016)
Aim: 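Regulators of TLR4 signalling towards TNF-alpha in macrophage-like cells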 (primary screen). Cells: human THP-1 monocytic leukaemia cells, TNF dual-luciferase reporter clone, PMA-differentiated to macrophage-like cells. Reagent: siRNA pool against human genes, 50 nM. Timing: LPS for 4 h, given about 3 days after siRNA transfection. Conditions: bacterial LPS (TLR4 ligand), 10 ng/ml. Measurement: 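TNF firefly reporter luminescence divided by renilla, normalised to the plate median, then turned into a robust z-score for each replicate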. Scale: TNF reporter robust z-score: higher = stronger TNF reporter response to LPS. Hit rule: 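a well is active when its z-score exceeds 2.8 or falls below -1.5; control wells carry no call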.
This is an unselected part of about 18,000 reagents. About 2,900 of all reagents (16%) were called active. 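Calls are made per well; low scores hint the gene aids the LPS response, high scores that it dampens it.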 Entries without a mark were called inactive. Repeated entries: four replicate wells of each siRNA pool.

no.	gene knocked down	TNF reporter robust z-score
1	OOEP	0.11
2	OOEP	1.16
3	OOEP	1.25
4	OOEP	-0.15
5	GRHL1	0.66
6	GRHL1	0.11
7	GRHL1	-0.26
8	GRHL1	0.02
9	SRC	0.37
10	SRC	0.81
11	SRC	0.53
12	SRC	-0.25
13	POLR3B	3.32 (active)
14	POLR3B	0.39
15	POLR3B	-0.95
16	POLR3B	2.81 (active)
17	SLC25A34	0.69
18	SLC25A34	2.44
19	SLC25A34	1.81
20	SLC25A34	1.67
21	PLPPR3	-1.12
22	PLPPR3	1.71
23	PLPPR3	1.04
24	PLPPR3	0.75
25	CAB39	0.53
26	CAB39	-0.64
27	CAB39	-0.13
28	CAB39	-0.59
29	PIK3R4	-0.2
30	PIK3R4	0.68
31	PIK3R4	-1.35
32	PIK3R4	-0.07
33	KRT9	-1.54 (active)
34	KRT9	-1.19
35	KRT9	-1.15
36	KRT9	-1.32
37	RASSF10	1
38	RASSF10	0.91
39	RASSF10	0.4
40	RASSF10	1.3
41	EIF1AX	0.51
42	EIF1AX	1.67
43	EIF1AX	1.43
44	EIF1AX	2.46
45	SCFD2	1.09
46	SCFD2	-0.27
47	SCFD2	-0.39
48	SCFD2	0.79
49	ADAMTS3	-1.15
50	ADAMTS3	0.33
51	ADAMTS3	-0.45
52	ADAMTS3	-1.04
53	HTR3B	-0.72
54	HTR3B	-0.6
55	HTR3B	-1.35
56	HTR3B	-0.06
57	PCDHGC5	-1.4
58	PCDHGC5	-1.1
59	PCDHGC5	-0.47
60	PCDHGC5	-0.34
61	CCNB3	-0.09
62	CCNB3	0.23
63	CCNB3	-0.31
64	CCNB3	-0.07
65	APOBEC4	-0.23
66	APOBEC4	0.28
67	APOBEC4	-0.63
68	APOBEC4	0.84
69	MTCH1	-0.13
70	MTCH1	-0.49
71	MTCH1	-0.26
72	MTCH1	0.64
73	PALS1	20.6 (active)
74	PALS1	-0.31
75	PALS1	-1.26
76	PALS1	-0.46
77	EPHA2	0.77
78	EPHA2	-0.12
79	EPHA2	-0.31
80	EPHA2	-0.09
81	IVNS1ABP	0.44
82	IVNS1ABP	-0.26
83	IVNS1ABP	-0.13
84	IVNS1ABP	-0.27
85	PAFAH1B2	-0.09
86	PAFAH1B2	-0.48
87	PAFAH1B2	-0.6
88	PAFAH1B2	0.17
89	FXYD5	-0.37
90	FXYD5	-0.41
91	FXYD5	-0.97
92	FXYD5	1.12
93	VSIR	0.95
94	VSIR	-0.02
95	VSIR	1.1
96	VSIR	0.5
97	SIGMAR1	0.16
98	SIGMAR1	0.55
99	SIGMAR1	0.08
100	SIGMAR1	0.54
101	NANS	-0.48
102	NANS	0.85
103	NANS	0.01
104	NANS	0.24
105	MYO10	6.23 (active)
106	MYO10	0.21
107	MYO10	-1.08
108	MYO10	-1.03
109	SELENOV	-0.1
110	SELENOV	-0.45
111	SELENOV	-0.81
112	SELENOV	-0.25
